Reference: patent publication US6867179B1, “Methods of inducing hair growth and coloration” (Trustees of Boston University, priority 1994, dated 2005)
At least one peptide structure holds a part that was inferred or is arguable (an end, a ring closure or a residue). Positions of bridges follow the written chain, without caps; N, C: chain ends. Residues, ends and D or L forms follow the SMILES beside them.

How the values were obtained:
p75^NTR-NIH 3T3 cells = test: Effect of KGA-containing peptides on survival of beta-amyloid treated p75NTR-NIH 3T3 cells; assay type: cell-based
Method: p75^NTR-NIH 3T3 cells were maintained in DME supplemented with 10% calf serum until 80% confluent. The cells were washed and incubated in serum free DME containing transferrin (5 microg/ml) and insulin (5 microg/ml). Triplicate dishes were supplemented with diluent or preaggregated beta-amyloid 1-40 (250 nM) as […]. […] After 72 hours, cells were rinsed in PBS and cultures were incubated in 0.25% trypsin at 37° C. Cell yields were determine using a particle counter.

p75^NTR = target: T1, p75^NTR (Homo sapiens, UniProt P08138); test: Competition for 125I beta-amyloid 1-40 binding to p75NTR-NIH 3T3 cells; parameters: expressed in transfected cells; host or cells: NIH 3T3 fibroblasts (p75^NTR NIH 3T3 cells, Dobrowsky et al. 1994)
T1 sequence (P08138 29-427): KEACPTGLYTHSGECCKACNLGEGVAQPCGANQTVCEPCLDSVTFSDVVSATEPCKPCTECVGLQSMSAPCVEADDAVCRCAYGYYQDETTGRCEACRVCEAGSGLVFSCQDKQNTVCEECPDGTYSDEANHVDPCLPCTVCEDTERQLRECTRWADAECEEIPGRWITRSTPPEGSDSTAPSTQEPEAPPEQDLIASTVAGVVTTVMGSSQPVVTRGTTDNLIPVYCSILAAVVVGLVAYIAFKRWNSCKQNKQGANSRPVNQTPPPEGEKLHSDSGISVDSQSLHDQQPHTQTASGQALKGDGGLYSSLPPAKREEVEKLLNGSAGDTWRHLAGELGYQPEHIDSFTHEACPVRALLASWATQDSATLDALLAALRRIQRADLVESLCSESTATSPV
Method: p75^NTR-NIH 3T3 cells were maintain in DMEM supplemented with 10% FBS in the presence of penicillin (45 ng/ml), streptomycin (68 ng/ml), and hygromycin B (17.5 ng/ml). […] After incubation, 1 mM of disuccinimidyl suberate was added for 30 minutes. Following centrifugation cells were lysed with RIPA buffer (50 mM Tris HCl, pH 8.0, […] NaCl 0.5% sodium deoxycholate 4, 5 mM MgCl2, 1% Triton x-100, 1 mM phenylmethylsulfonylfluoride [PMSF], and 1 microg/ml aprotinin), sonicated for 1-3 seconds and immunoprecipitated with anti p75^NTR antibodies (mouse monoclonal IgG1, Cedarlane Laboratories Ltd., Ontario, Canada) or mouse IgG as control for 16 hours at […] in the presence of 15 microl of protein G plus protein A agarose and 1M NaCl adjusted to pH 8.0. After several washes with 20 mM Tris HCl, pH 8.0, 1M NaCl, 5 mM MgCl2, 0.2% Triton X-100 and 1 mM PMSF, immunoprecipitates were separated over 8% PAGE and subjected to autoradiography. A band of 75-80 kD molecular weight was present only in lysates inmmunoprecipitated with anti p75^NTR antibodies and not lysates inmmunoprecipitated with irrelevant mouse IgG.
p75^NTR-NIH 3T3 cells were incubated for 2 hours at […] in binding medium (DMEM, 10 mM hepes, 0.1 mg/ml cytochrome C, 0.01% Tween 80, 1 mg/ml BSA) with ^125I beta-amyloid 1-40 and increasing concentrations of NGF (0-100 ng/ml). […]

CC[C@H](C)[C@@H]1NC(=O)[C@H](C)NC(=O)CNC(=O)[C@H](CCCCN)NC(=O)[C@H](CC(N)=O)NC(=O)[C@H](CO)NC(=O)CNC(=O)[C@H](C(C)C)NC(=O)[C@@H](N)CSSC[C@@H](C(=O)O)NC1=O [CVGSNKGAIC] (H-CVGSNKGAIC-OH; disulfide 1-10 (inferred); N-terminus and C-terminus assumed)
Cell yields, cyclic peptide and beta-amyloid versus beta-amyloid alone (p75^NTR-NIH 3T3 cells; 250 nM peptide, 250 nM preaggregated beta-amyloid 1-40, 72 hours): significantly higher | Beta-amyloid induced cell loss (p75^NTR-NIH 3T3 cells; peptide 200 nM with beta-amyloid 200 nM): blocked | Cell yield, peptide alone (p75^NTR-NIH 3T3 cells; peptide alone): no effect on cell yield | Competition with beta-amyloid for p75NTR binding (p75^NTR): compete for p75^NTR binding with beta-amyloid peptide
